Data reported in PubChem BioAssay AID504467 (National Center for Advancing Translational Sciences (NCATS), 2011).
Out of some 330,000 compounds screened, about 7,700 (2.3%) were called active. The inconclusive results got no clear call from the source; some entries with a clear call stand among them for comparison. Calls follow the shape of the dose curve; as a rule, active = well fitted inhibition curve with a large enough effect; inconclusive = small, poorly fitted or top-dose-only effect, or effect the other way; inactive = flat fitted curve, though single readings scatter. A potency beside an inconclusive call is a rough fit, not a confirmed value.

test: qHTS screen for small molecules that inhibit ELG1-dependent DNA repair in human embryonic kidney (HEK293T) cells expressing luciferase-tagged ELG1; conditions: HEK293T ELG1-luciferase reporter, luminescence, 16 h, DNA damage induced by 5-fluorouridine; activity change, negative = inhibition: at 46.1 µM (top of the series); also: nearly all actives have a fitted effect of over 55% in size
Outline: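 Step one: seed 2,000 cells per well. Step two: pin-transfer compound or DMSO alongside 5-fluorouridine. Step three: incubate 16 hr, 37 °C, 5% CO2. Step four: add ONE-Glo, wait 30 min, read luminescence.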
% is scaled to controls: 0 for no effect and ±100 for the full control effect; potency is read from the fitted curve at half-maximal effect.

Compound | Potency | activity change, negative = inhibition
Cc1ccccc1C(=O)NNC(=O)C(=O)Nc1cccc(Cl)c1C | inconclusive: 36.6 µM [activator, partial curve, poor fit] | 
Cc1csc(NC(=O)C2COc3ccccc3O2)n1 (configuration not stated) | inconclusive: 0.82 µM [activator, partial curve] | 
COc1ccc(Cc2nnc(SC(C)C(=O)Nc3ccc(C(N)=O)cc3)o2)cc1 (configuration not stated) |  | inactive: -0.746%
CCCCC(CC)CN=C(N)NC(N)=NCCCCCCN=C(N)NC(N)=NCC(CC)CCCC (configuration not stated) | inconclusive: 35.5 µM [inhibitor, single point] | 
CCN(CC)S(=O)(=O)c1cccc(C(=O)N[C@H](C(=O)NCc2ccc(Cl)cc2)C(C)C)c1 | inconclusive: 29.1 µM [inhibitor, single point] | 
COCCNC(=O)C(c1ccccc1F)N(C(=O)C(=O)NC1CCCC1)C1CCCCC1 (configuration not stated) | inconclusive: 23.1 µM [activator, partial curve, poor fit] | 
Cc1ccc(-c2nnn(Cc3nc(N)nc(N4CCOCC4)n3)n2)cc1 | inconclusive: 29.1 µM [inhibitor, single point] | 
COc1ccc(/C=C/C(=O)NCC(=O)N/N=C/c2cc(Br)ccc2OCc2ccccc2)cc1 | inconclusive: 5.8 µM [inhibitor, full curve] | 
COc1ccccc1N1CCN(C(=O)C2CCCN(S(=O)(=O)c3ccc(C)cc3)C2)CC1 (configuration not stated) | inconclusive: 29.1 µM [inhibitor, single point] | 
CCN(CC)CCCn1c(=S)[nH]c2cc(C(=O)OC)ccc2c1=O | inconclusive: 23.1 µM [activator, partial curve, poor fit] | 
COC(=O)c1ccc(OC(=O)c2ccco2)cc1 |  | inactive: 28.6%
O=C(Nc1cccc(-c2ccc(N3CCOCC3)nn2)c1)c1ccc([N+](=O)[O-])cc1 | inconclusive: 1.16 µM [activator, single point] | 
Cc1cc(NC(=O)CS(=O)(=O)c2c[nH]c3ccccc23)no1 |  | inactive: 11.1%
COc1ccc2nc(SCc3ccccc3)nc(C)c2c1 | inconclusive: 6.51 µM [activator, partial curve] | 
N/C(=N\OC(=O)CC1CCCCC1)c1cccnc1 | inconclusive: 18.4 µM [activator, single point] | 
COC(C(=O)Nc1ccc(F)cc1)c1ccccc1 (configuration not stated) |  | inactive: 12.3%
O=C(CSc1nc2cc(S(=O)(=O)N3CCOCC3)ccc2o1)NC1CCCc2ccccc21 (configuration not stated) | inconclusive: 15.8 µM [inhibitor, single point] | 
S=C(NCc1ccco1)N1CCN(C/C=C/c2ccccc2)CC1 | inconclusive: 29.1 µM [inhibitor, single point] | 
S=C(NCC1CCCO1)Nc1ccccc1 (configuration not stated) |  | inactive: -5.97%
O=Cc1cn(-c2ccccc2)nc1-c1cc2ccccc2oc1=O | inconclusive: 16.4 µM [activator, partial curve, poor fit] | 
CC(C)(C)c1ccc(C(=O)OC/C(O)=C(\C#N)c2nc3ccccc3s2)cc1 |  | inactive: -10.1%
COc1ccc(C(=O)N2CCN(c3nc4ccccc4o3)CC2)cc1OC | inconclusive: 23.1 µM [inhibitor, single point] | 
Cc1ccccc1C(=O)Nc1ccnn1C1CCN(C(C)Cc2ccccc2F)CC1 (configuration not stated) | inconclusive: 25.9 µM [inhibitor, partial curve, poor fit] | 
Cc1ccc(C(=O)CNc2ccc(C)cc2C)cc1 | inconclusive: 31.6 µM [activator, single point] | 

Compound | Potency | activity change, negative = inhibition
CC(NS(=O)(=O)c1cc(C(F)(F)F)ccc1Cl)C(=O)N(C)C1CCN(C)CC1 (configuration not stated) | inconclusive: 32.6 µM [activator, partial curve, poor fit] | 
CC1(C)CN(c2ccccc2)N(Cc2ccc(F)cc2)C1=O |  | inactive: -14.2%
Cn1nc(C(=O)Nc2nc(-c3ccccn3)cs2)c2ccccc2c1=O | inconclusive: 2.31 µM [inhibitor, full curve] | 
O=C(COC(=O)c1ncc(Cl)c(Cl)c1Cl)Nc1ccc(Cl)cn1 |  | inactive: 10.7%
CCOc1cnn(-c2ccccc2)c(=O)c1Cl | inconclusive: 16.4 µM [activator, partial curve] | 
CC(C)OC(=O)c1cc(C(=O)c2cc(F)ccc2O)coc1=N |  | inactive: -13.6%
CC(=O)Nc1ccc(N2CCCC(C)C2)c([N+](=O)[O-])c1 (configuration not stated) |  | inactive: -0.906%
Cc1ccccc1N(CC(=O)NCCSC1CCCCC1)S(=O)(=O)c1ccccc1 |  | inactive: -29.3%
O=C(NNC(=S)Nc1ccccc1C(F)(F)F)c1ccc(Br)o1 |  | inactive: 2.47%
Nc1ccccc1SCC(=O)Nc1cccc2ccccc12 | inconclusive: 3.98 µM [activator, partial curve] | 
O=C(Nc1ccc(C(=O)N2CCOCC2)cc1)c1ccc([N+](=O)[O-])cc1 |  | inactive: 0.926%
O=C(CC(=O)c1ccccc1)Nc1ccccc1C(F)(F)F | inconclusive: 18.3 µM [activator, single point] | 
CCCCCOC(=O)C1[C@H]2C(=O)N(CCCOC)C[C@]23C=C[C@H]1O3 (some centres not stated) |  | inactive: 0%
Cc1cccc2cc(C#N)c(N3CCC(O)CC3)nc12 |  | inactive: -16.2%
CCOC(=O)c1sc2nc(C3CC3)cc(-c3ccc(OC)cc3)c2c1N | inconclusive: 16.4 µM [activator, single point] | 
COC(=O)CCN(C(=O)C12CC3CC(CC(C3)C1)C2)c1ccccn1 |  | inactive: 7.24%
Cc1ccc(C(=O)Nc2cccc(C(F)(F)F)c2)cc1Nc1ncnc2nc[nH]c12 | inconclusive: 11.6 µM [inhibitor, partial curve] | 
CCOC(=O)c1c(Cc2ccccc2)c[nH]c1C | inconclusive: 29.1 µM [activator, single point] | 
CN(CCO)S(=O)(=O)c1ccc2c(c1)C(=NO)c1cc(S(=O)(=O)N(C)CCO)ccc1-2 |  | inactive: -19.1%
C[C@@]12C(=O)Nc3ccc(F)cc3C(=O)N1[C@H]1c3cc(Br)ccc3OC[C@@H]1[C@@H]2c1ccccc1 |  | inactive: -6.81%
Cc1ccc(OCCC(=O)OCC(=O)Nc2cc(S(=O)(=O)N(C)C)ccc2C)cc1 |  | inactive: 6.41%
C=CCOc1ccc(C(=O)Nc2ncn[nH]2)cc1 |  | inactive: 22.2%
N#CCCn1cc(/C=N/O)c(-c2ccccc2)n1 | active: 23.1 µM | 
CC(=O)Nc1sc(NC(=O)c2ccc([N+](=O)[O-])cc2)nc1-c1cccs1 | inconclusive: 16.4 µM [inhibitor, single point] | 

2 neighbouring records from above, for reference:
Compound | Potency | activity change, negative = inhibition
CCOC(=O)c1c(Cc2ccccc2)c[nH]c1C | inconclusive: 29.1 µM [activator, single point] | 
CN(CCO)S(=O)(=O)c1ccc2c(c1)C(=NO)c1cc(S(=O)(=O)N(C)CCO)ccc1-2 |  | inactive: -19.1%

Next part:

Compound | Potency | activity change, negative = inhibition
Cc1ccc(N2C(=S)NC3c4cc(Cl)ccc4OC2(C)C3C(=O)N(C)C)cc1 (configuration not stated) |  | inactive: 6.36%
CN(c1ccc(OCC(=O)NCCc2ccccc2)cc1)S(=O)(=O)c1ccc(Cl)cc1 | inconclusive: 23.1 µM [inhibitor, single point] | 
COc1ccccc1CCc1nnc(CCC(=O)NCC[C@@H]2C[C@@H]3C=C[C@H]2C3)o1 |  | inactive: -6.75%
O=C(Nc1ccc(N2CCN(C(=O)c3ccccc3)CC2)cc1)c1ccc(Br)o1 | inconclusive: 20.6 µM [inhibitor, single point] | 
CCOC(=O)c1ccc(NC(=O)Cn2nnc(-c3ccccc3C)n2)cc1 | inconclusive: 18.4 µM [inhibitor, single point] | 
Cc1ccc(NC(=O)CN2CCc3cc4c(cc3C2)OCCCO4)cc1C | inconclusive: 29.1 µM [inhibitor, single point] | 
CC1(C(=O)NC(=S)N(CCC#N)Cc2cccnc2)CC1(Cl)Cl (configuration not stated) |  | inactive: 2.29%
CSc1ccccc1-c1nnc(-c2ccc(Cl)cc2Cl)o1 | inconclusive: 14.6 µM [activator, single point] | 
Cc1[nH][nH]c(=O)c1C(c1ccc(-c2ccc(Cl)c(C(=O)O)c2)o1)c1c(C)[nH][nH]c1=O | inconclusive: 9.2 µM [inhibitor, partial curve] | 
CC1CCCCN1C(=O)c1c(Cl)cnn1C (configuration not stated) |  | inactive: 4.17%
O=C(CNC(=O)c1ccccc1F)OCC(=O)N1CCCCC1 | inconclusive: 18.4 µM [activator, partial curve, poor fit] | 
CCCCNCC#CCOc1cc(C)ccc1C(C)C | inconclusive: 16.4 µM [inhibitor, partial curve, poor fit] | 
Cc1ccc(S(=O)(=O)NCC23C=CC(O2)C2C(=O)N(c4ccccc4)C(=O)C23)cc1 (configuration not stated) |  | inactive: 16.5%
CN(CC(=O)Nc1ccc(Cl)c(Cl)c1)C(=O)C1CCC1 |  | inactive: 3.11%
CC(C(=O)N(C)C1CCS(=O)(=O)C1)N1C(=O)/C(=C/c2ccco2)SC1=S (configuration not stated) |  | inactive: -3.54%
CC(C)(C)c1ccc(NC(=O)Nc2ccc(F)cc2)cc1 | inconclusive: 2.59 µM [activator, partial curve] | 
O=c1n(Cc2ccccc2Cl)nc2n1-c1ccccc1SC2 | inconclusive: 20.6 µM [activator, partial curve] | 
COC(=O)c1ccc(-n2c(C)cc(C(=O)CCl)c2C)cc1 | inconclusive: 23.1 µM [activator, partial curve] | 
CC(C)(C)C(=O)N(Cc1nc2ccccc2c(=O)[nH]1)Cc1cccs1 |  | inactive: -4.62%
Cc1ccc(-n2c(-c3ccco3)nc3c(cnn3-c3ccccc3C)c2=O)cc1 | inconclusive: 25.9 µM [inhibitor, partial curve, poor fit] | 
Cc1cc(Cl)ccc1C1=CC(=O)C[C@H](c2ccc(F)cc2)C1 | inconclusive: 0.651 µM [inhibitor, single point] | 
COc1ccc(CNC(=O)c2ccc3ccccc3n2)cc1 | inconclusive: 29.1 µM [activator, partial curve, poor fit] | 
Cc1ccc2nc(NCCc3ccccc3)c3nncn3c2c1 | inconclusive: 5.17 µM [activator, full curve, poor fit] | 
O=C(Nc1ccc(Cl)cc1)N1CCCC(Cn2cccc2)C1 (configuration not stated) | inconclusive: 18.3 µM [inhibitor, partial curve, poor fit] | 
